Results from PMC8286840, “Identifying SARS-CoV-2 antiviral compounds by screening for small molecule inhibitors of Nsp3 papain-like protease” (Biochemical Journal, 2021).
Counter-ions that a name gives are not always drawn. Like-named read-outs stand apart in the source and are kept apart here.

Key:
[1] = biological target: T1, SARS-CoV-2 PLpro (nsp3 1564–1878) (Severe acute respiratory syndrome coronavirus 2, UniProt P0DTD1); experiment: biochemical; parameters: FRET-quenched peptide (Pro3) cleavage by PLpro, 10 min pre-incubation, slope over 20 min, normalised to no-compound control; details: read-out: % of control remaining
[2] = biological target: T1, SARS-CoV-2 PLpro (nsp3 1564–1878); experiment: biochemical; parameters: FRET-quenched peptide (Pro3) cleavage by PLpro, 10 min pre-incubation, slope over 20 min, normalised to no-compound control; details: read-out: % of control remaining; remark: listed apart in the source

Question: Which results are given for `CC(C)CC(=O)O` [3-Methylbutanoic acid]?
Answer: remaining activity at 1.25 µM ([1]; Well no.=6309, low concentration screen): 98.5%; remaining activity at 3.75 µM ([2]; Well no.=6309, high concentration screen): 95.1%

Question: What does the source list for `CC(=O)[C@H]1CC[C@H]2[C@@H]3CC[C@H]4C[C@H](O)CC[C@]4(C)[C@H]3C(=O)C[C@]12C` [5alpha-Pregnan-3alpha-ol-11,20-dione]?
Answer: remaining activity at 1.25 µM [1]: 102%; remaining activity at 3.75 µM [2]: 99.4%

Question: What does the source list for `O=C(c1ccc(F)cc1)N1CCC[C@H](c2nc(-c3ccc(F)cc3)no2)C1` [ADX-47273]?
Answer: remaining activity at 1.25 µM ([1]; Well no.=5344, low concentration screen): 95.8%; remaining activity at 1.25 µM ([1]; Well no.=7949, low concentration screen): 98.5%; remaining activity at 3.75 µM ([2]; Well no.=5344, high concentration screen): 95.8%; remaining activity at 3.75 µM ([2]; Well no.=7949, high concentration screen): 94.7%

Question: What does the source list for `CCC[C@@H]1C[C@@H](C(=O)N[C@@H]([C@H]2O[C@H](SC)[C@H](O)[C@@H](O)[C@H]2O)[C@H](C)Cl)N(C)C1` [Clindamycin.HCl]?
Answer: remaining activity at 1.25 µM ([1]; Well no.=1541, low concentration screen): 107%; remaining activity at 3.75 µM ([2]; Well no.=1541, high concentration screen): 108%

Question: Which results are given for `COc1cc2c(cc1OC)C(=O)C(CC1CCN(Cc3ccccc3)CC1)C2` (stereo not drawn) [Donepezil.HCl]?
Answer: remaining activity at 1.25 µM ([1]; Well no.=1547, low concentration screen): 94.1%; remaining activity at 3.75 µM ([2]; Well no.=1547, high concentration screen): 94.1%

Question: Which results are given for `CCNC(=O)C[C@@H]1N=C(c2ccc(Cl)cc2)c2cc(OC)ccc2-n2c(C)nnc21` [I-BET762]?
Answer: remaining activity at 1.25 µM ([1]; Well no.=5959, low concentration screen): 102%; remaining activity at 3.75 µM ([2]; Well no.=5959, high concentration screen): 101%

Question: With `NCCC[C@H](N)C(=O)O` [L-Ornithine (hydrochloride)] as the compound, how does the remaining activity at 1.25 µM ([1]; Well no.=7689, low concentration screen) read?
Answer: 108%

Question: And the remaining activity at 3.75 µM ([2]; Well no.=7689, high concentration screen)?
Answer: 109%

Question: Which remaining activity at 1.25 µM ([1]; Well no.=859, low concentration screen) does the source give for `COC(=O)C1=C(C)NC(C)=C(C(=O)OC)C1c1ccccc1[N+](=O)[O-]` [Nifedipine] here?
Answer: 102%

Question: What about the remaining activity at 1.25 µM ([1]; Well no.=1715, low concentration screen) of the same compound?
Answer: 98.9%

Question: And the remaining activity at 3.75 µM ([2]; Well no.=859, high concentration screen)?
Answer: 103%

Question: And the remaining activity at 3.75 µM ([2]; Well no.=1715, high concentration screen)?
Answer: 97.4%

Question: What does the source list for `CCn1cc(C(=O)O)c(=O)c2cc(F)c(N3CCN(C)CC3)cc21` [Pefloxacin mesylate]?
Answer: remaining activity at 1.25 µM ([1]; Well no.=4626, low concentration screen): 96.4%; remaining activity at 3.75 µM ([2]; Well no.=4626, high concentration screen): 95.2%

Question: How did the remaining activity at 1.25 µM ([1]; Well no.=2097, low concentration screen) turn out when `CCn1cc(C(=O)O)c(=O)c2cc(F)c(N3CCN(C)CC3)cc21` [Pefloxacine mesylate dihydrate] was run?
Answer: 102%

Question: And the remaining activity at 3.75 µM ([2]; Well no.=2097, high concentration screen)?
Answer: 102%

Question: Which remaining activity at 1.25 µM ([1]; Well no.=1258, low concentration screen) does the source give for `Nc1nc2ccc(OC(F)(F)F)cc2s1` [Riluzole] here?
Answer: 105%

Question: What about the remaining activity at 3.75 µM ([2]; Well no.=1258, high concentration screen) of the same compound?
Answer: 107%

Question: How did the remaining activity at 1.25 µM [1] turn out when `CN1c2ccccc2C(NCCCCCCC(=O)O)c2ccc(Cl)cc2S1(=O)=O` (stereo not drawn) [Tianeptine sodium] was run?
Answer: 96.1%

Question: What about the remaining activity at 3.75 µM [2] of the same compound?
Answer: 93.4%

Question: With `C#C[C@]1(O)CC[C@H]2[C@@H]3CC[C@H]4Cc5nc6nc7ccccc7n6cc5C[C@]4(C)[C@H]3CC[C@@]21C` [WIN 51708 hydrate] as the compound, how does the remaining activity at 1.25 µM ([1]; Well no.=5608, low concentration screen) read?
Answer: 98.7%

Question: And the remaining activity at 3.75 µM ([2]; Well no.=5608, high concentration screen)?
Answer: 101%
